# Laboratory results published in publication PMC6748156.
# By UniProt entry, the sequences of proteins in these tests, tags left out.
# UniProt Q8N9U0: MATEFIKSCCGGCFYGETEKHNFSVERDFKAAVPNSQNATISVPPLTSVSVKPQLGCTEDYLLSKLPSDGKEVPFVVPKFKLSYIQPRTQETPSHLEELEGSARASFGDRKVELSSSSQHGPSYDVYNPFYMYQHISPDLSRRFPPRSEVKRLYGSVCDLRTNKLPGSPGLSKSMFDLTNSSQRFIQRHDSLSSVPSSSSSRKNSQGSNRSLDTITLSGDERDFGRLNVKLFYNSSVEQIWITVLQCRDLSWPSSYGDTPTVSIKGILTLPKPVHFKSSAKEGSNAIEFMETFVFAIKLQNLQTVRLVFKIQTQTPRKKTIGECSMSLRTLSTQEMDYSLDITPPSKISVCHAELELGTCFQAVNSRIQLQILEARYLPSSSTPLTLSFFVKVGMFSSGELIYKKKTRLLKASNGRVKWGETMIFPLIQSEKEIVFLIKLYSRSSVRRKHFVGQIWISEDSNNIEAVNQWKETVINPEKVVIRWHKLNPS
# Results are given in words; binding and its absence hold for the method and conditions named. In cells and extracts the contact can be indirect. Some binding calls cover weakened binding; strength is not graded here.
# Tests used:
# [1] = target: p53, endogenous in H460 cells (wild-type p53) (human (endogenous in H460)) (UniProt P04637); test: co-IP; lysates of H460 negative control or TC2N shRNA cells treated with 20 µM MG132 for 24 h, precipitated with anti-p53 antibody, Pierce Co-IP Kit, western blot
# [2] = target: Flag-tagged wild-type full-length TC2N (Tac2-N) (human) (UniProt Q8N9U0); test: co-IP; lysates of A549 vector control or TC2N cells precipitated with anti-Flag antibody (normal IgG as negative control), Pierce Co-IP Kit, western blot
binding [1],binding [2],Substance
binds,,"cyclin-dependent kinase 5 (Cdk5), endogenous in H460 cells (from UniProt Q00535 1-292) (enzyme)"
,binds,"p53, endogenous in A549 cells (from UniProt P04637 1-393)"
